{"source": "PubChem BioAssay AID504444", "about": "(National Center for Advancing Translational Sciences (NCATS), 2011)", "note": "Screen size: about 360,000 compounds; about 7,500 (2.1%) were called active. Inconclusive means that the source gave no clear call. Such entries were picked first, then a sample of the others. Calls come from the whole dose curve; as a rule, active = well fitted inhibition curve with a large enough effect; inconclusive = small, poorly fitted or top-dose-only effect, or effect the other way; inactive = flat fitted curve, though single readings scatter. Where the call is inconclusive, the potency comes from a doubtful curve fit. % is set by controls: 0 for no effect and ±100 for the full control effect; potency is the fitted concentration of half-maximal effect.", "data": [{"assay": "Nrf2 qHTS screen for inhibitors; note: nearly all actives have a fitted effect of over 60% in size", "conditions": "A549 ARE-Fluc reporter, luciferase luminescence, 18-24 h; activity change, negative = inhibition: at 46 µM (top of the series)", "how_it_was_run": "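Nrf2 activity is the BugLite luminescence, read 15 min after reagent at room temperature, following CellTiter-Fluor cytotoxicity readout (30 min, 37C). Compound titrations were applied for 18-24 h to 5000 A549 ARE_Fluc cells/well in 5% FBS OPTI-MEM.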", "values": [{"smiles": "O=C(Cc1cccs1)Nc1ccccc1F", "Potency": "inconclusive: 2.31 µM [activator, partial curve]"}, {"smiles": "COc1ccc(C2CC(=O)c3cc(-c4nc(-c5cccc([N+](=O)[O-])c5)cs4)c(=O)n(-c4ccccc4C)c3C2)cc1", "note": "(centres undefined)", "Potency": "inconclusive: 23.1 µM [falling, partial curve, poor fit]"}, {"smiles": "Cc1ccc2cc(CN(CCc3ccccc3)C(=S)NCCCN(C)C)c(=O)[nH]c2c1", "Potency": "inconclusive: 29.1 µM [activator, single point]"}, {"smiles": "O=C(CSc1nc(Nc2ccccc2)nc(N2CCOCC2)n1)N1CCc2ccccc21", "Potency": "inconclusive: 29.1 µM [falling, single point]"}, {"smiles": "O=C(NCc1ccccc1F)c1cccc(NC(=O)N2CCSc3ncccc32)c1", "activity change, negative = inhibition": "inactive: -4.84%"}, {"smiles": "CCc1nc(-c2ccc(OC)c(OC)c2)cc2cc(OC)c(OC)cc12", "activity change, negative = inhibition": "inactive: 1.95%"}, {"smiles": "COc1ccc(S(=O)(=O)n2cnc3ccccc32)c(C)c1", "Potency": "inconclusive: 18.4 µM [falling, single point]"}, {"smiles": "COc1cc(C(=O)N2CCN(C(=O)C3CC3)CC2)cc(OC)c1OC", "Potency": "inconclusive: 32.6 µM [activator, single point]"}, {"smiles": "C=CCn1c(SCc2ccc(C#N)cc2)nnc1-c1ccc(C)cc1", "Potency": "active: 20.6 µM"}, {"smiles": "CCCCC(c1nnnn1C(C)C)N1CCN(C(=O)c2ccco2)CC1", "note": "(centres undefined)", "activity change, negative = inhibition": "inactive: -4.16%"}, {"smiles": "CC(=NNc1ccc([N+](=O)[O-])cn1)c1ccc(N)cc1", "Potency": "inconclusive: 5.8 µM [activator, partial curve]"}, {"smiles": "CCCCCn1c(=O)[nH]c2cc(C(=O)NCCN3CCOCC3)ccc2c1=O", "activity change, negative = inhibition": "inactive: 3.3%"}, {"smiles": "CC1CN(C(=O)c2cc(-c3ccc(Cl)s3)nc3ccccc23)CC(C)O1", "note": "(centres undefined)", "Potency": "inconclusive: 7.31 µM [activator, partial curve, poor fit]"}, {"smiles": "COC(=O)c1ccc(NC(=O)c2nn(C)c3c2COc2ccccc2-3)cc1", "Potency": "inconclusive: 23.1 µM [falling, single point]"}, {"smiles": "CCCCC1C2C(=O)N(c3ccc(C)cc3)C(=O)C2ON1c1ccccc1", "note": "(centres undefined)", "Potency": "inconclusive: 11.6 µM [activator, partial curve, poor fit]"}, {"smiles": "CCOc1ccc(C2NC(=S)NC3=C2CCc2ccccc23)cc1", "note": "(centres undefined)", "Potency": "inconclusive: 2.06 µM [activator, single point]"}, {"smiles": "COc1cc(NC(=O)CSc2ccc3c(c2)OCCO3)cc(OC)c1OC", "Potency": "inconclusive: 25.9 µM [falling, single point]"}, {"smiles": "COc1ccc(NC(=O)c2ccc(CN3CCc4ccccc4C3)cc2)cc1OC", "Potency": "active: 20.6 µM"}, {"smiles": "COc1cc(NC(=O)c2csc3c2CCCC3)ncn1", "Potency": "inconclusive: 2.59 µM [activator, partial curve]"}]}]}
